Test results reported in PubChem BioAssay AID2685 (National Center for Advancing Translational Sciences (NCATS), 2010).
Some of the results follow. The main result of the screen is listed elsewhere. These columns were measured beside it and carry no call. Most of these compounds were active or inconclusive in the main read-out, so they are no random draw. Potencies come from curve fits of mixed quality, noted in brackets.

Assay: qHTS Assay for Lipid Storage Modulators in Drosophila S3 Cells;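 for cell number change: cells counted by Cell Tracker Red CMTPX staining in the red channel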
Conditions: BODIPY lipid droplet fluorescence, 18-24 h; for cell number change: measured here: cell count max response, cells fed with added oleic acid
Outline: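 Drosophila S3 cells loaded with oleic acid (400 uM, as added) and compounds at several concentrations; lipid droplets imaged by 488-nm laser-scanning cytometry, 500–530 nm intensity and object ratio to cell channel. Percent activity normalized to 20 uM Triacsin C.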

[1] = measured here: lipid fluorescence (Fed channel) AC50, cells fed with added oleic acid
[2] = measured here: cell number channel AC50, cells fed with added oleic acid

| Compound | cell number change | AC50 [1] | AC50 [2] |
| --- | --- | --- | --- |
| Cc1ncc([N+](=O)[O-])n1CC(=O)Nc1ccc2c(c1)OCO2 | -28.6% | 0.731 µM [falling, full curve] | – |
| O=C(N/N=C/c1cccnc1)c1ccc([N+](=O)[O-])cc1Cl | -26.7% | 8.2 µM [falling, partial curve] | – |
| O=[N+]([O-])c1cnccc1Nc1ccccc1 | -33.9% | 5.8 µM [rising, single point] | 16.4 µM [falling, single point] |
| O=[N+]([O-])c1ccc2c(c1)nc1n2CCN(C2CCCCC2)C1 | 5.23% | – | – |
| CC(OC(=O)c1ccc([N+](=O)[O-])s1)C(=O)Nc1ncc(Cl)cc1Cl (centres undefined) | -18.2% | 29.1 µM [falling, single point] | – |
| CO[C@@]1(NC(=O)C2SC(=C(C(N)=O)C(=O)O)S2)C(=O)N2C(C(=O)O)=C(CSc3nnnn3C)CS[C@@H]21 (some centres undefined) | -20.6% | 0.116 µM [falling, full curve, poor fit] | 0.184 µM [falling, full curve, poor fit] |
| COC(=O)c1cccc(Nc2cc(C)nc(-c3ccccc3O)n2)c1 | -55.9% | – | – |
| CSc1ccc(CN(C)CC(=O)Nc2ccccc2C(=O)NC2CC2)cc1 | 5.99% | 29.1 µM [falling, single point] | – |
| CCOc1ccc(N(CC(=O)Nc2cccnc2)S(=O)(=O)c2ccc(C)cc2)cc1 | 70.4% | – | 29.1 µM [rising, single point] |
| COc1cc(OC)c(C#N)c(S(=O)Cc2ccccc2)c1 (centres undefined) | 39.6% | 4.11 µM [falling, single point] | 29.1 µM [rising, single point] |
| O=C(Nc1ncc2c(n1)-c1ccccc1OC2)c1ccc(F)cc1 | 51.5% | 6.51 µM [rising, partial curve] | 29.1 µM [rising, single point] |
| Cc1cc(C(=O)Nc2cccc(S(=O)(=O)N3CCCCC3)c2)c2ccccc2n1 | 15.9% | 0.00461 µM [rising, full curve, poor fit] | 0.00517 µM [rising, full curve, poor fit] |
| O=C(c1ccccc1)c1ccc2nc(-c3ccc(NC(=O)c4ccccc4F)cc3)[nH]c2c1 | -51.4% | 14.6 µM [falling, partial curve] | – |
| CC(=O)N1CCN(CC(=O)Nc2ccccc2C(=O)NCc2ccc(C)cc2)CC1 | 1.32% | 0.631 µM [rising, partial curve, poor fit] | – |
| CCCCOc1ccc(C(=O)NCC2(c3ccc(OC)cc3)CCOCC2)cc1 | -44% | 1.16 µM [falling, partial curve] | 29.1 µM [falling, single point] |
| C=CCSc1[nH]c(=O)cc(C)c1C(N)=O | -55.5% | 5.8 µM [falling, full curve] | 7.31 µM [falling, partial curve] |
| CCN(C(=O)CSc1nnc(-c2cccs2)n1N)c1c(N)n(Cc2ccccc2)c(=O)[nH]c1=O | 5.5% | 29.1 µM [falling, single point] | – |
| C=CCn1c(SCc2cc(=O)n3ccsc3n2)nc2scc(C3CC3)c2c1=O | 12.8% | 1.3 µM [rising, full curve, poor fit] | – |
| CC(=O)N=c1scc(-c2ccccc2)n1-c1cccc(O)c1 | 29.6% | 29.1 µM [falling, single point] | – |
| CCOC(=O)c1ccccc1N=Cc1c(O)c2ccccc2oc1=O | 10.1% | 29.1 µM [rising, single point] | – |

| Compound | cell number change | AC50 [1] | AC50 [2] |
| --- | --- | --- | --- |
| O=C(NC1CCCCC1)C(c1ccc(F)cc1)N(Cc1cccs1)C(=O)CN1C(=O)c2ccccc2S1(=O)=O (centres undefined) | -1.48% | 1.16 µM [falling, single point] | – |
| COc1ccc(N2CCN(C(=O)c3ccc(S(=O)(=O)N4CCCC4)cc3)CC2)cc1 | -41% | – | 1.16 µM [falling, full curve] |
| CCOC(=O)CCSCC(=O)Nc1nnc(C)s1 | -23.7% | 4.11 µM [falling, single point] | 2.59 µM [falling, full curve, poor fit] |
| COC(=O)c1ccccc1NC(=O)Nc1nnc(N2CCC(C)CC2)s1 | 16.2% | 29.1 µM [rising, single point] | – |
| CC(/C=C/c1ccccc1)=N\Nc1ccccc1[N+](=O)[O-] | -69.9% | 2.06 µM [falling, full curve] | 2.91 µM [falling, full curve, poor fit] |
| NC(=O)C1CCN(c2cc(Cl)nc(N)n2)CC1 | -56.3% | 0.651 µM [falling, full curve, poor fit] | – |
| O=C(O)c1cc(NCc2ccccc2C(F)(F)F)ccc1N1CCOCC1 | 24.3% | 0.461 µM [rising, partial curve] | 8.2 µM [rising, partial curve, poor fit] |
| CCCCCCSc1nsc(NC(=O)CC(C)C)n1 | -24.7% | 0.0326 µM [falling, full curve] | – |
| Cc1ccc(C)c(-c2cc(C(=O)NCc3cccs3)c3ccccc3n2)c1 | 5.5% | – | 6.51 µM [rising, partial curve, poor fit] |
| O=C(O)CSc1cc(NS(=O)(=O)c2ccc(Br)cc2)c2ccccc2c1O | -31.5% | 29.1 µM [falling, single point] | 29.1 µM [falling, single point] |
| CC(C)n1cc(CN2CCC(n3nccc3NC(=O)C3CCCC3)CC2)cn1 | 7.95% | 1.16 µM [rising, full curve, poor fit] | – |
| Cc1ccccc1NC(=O)Cn1c(C)nc2ccc(N)cc2c1=O | 16.2% | 1.84 µM [falling, single point] | – |
| O=C(COC(=O)c1cccc(N2C(=O)c3ccccc3C2=O)c1)Nc1ccccc1 | – | 10.3 µM [rising, partial curve] | – |
| O=[N+]([O-])c1ccc(NCCN2CCOCC2)c([N+](=O)[O-])c1 | 28.8% | – | 0.82 µM [rising, full curve, poor fit] |
| CN1C(=O)c2ccc(N3CCCC3)cc2C1=O | -7.59% | – | – |
| Cc1ccc(CN2CCSc3ccc(C(=O)NC4CCCC4)cc32)cc1 | – | 29.1 µM [falling, single point] | – |
| O=C(O)CN1C(=O)NC2(CCc3ccccc32)C1=O (centres undefined) | 21.9% | – | – |
| O=C(O)CCc1ccc(-c2ccccc2)n1NC(=O)c1ccco1 | -9.53% | 6.51 µM [rising, single point] | – |
| CC(=O)c1cccc(S(=O)(=O)Nc2ccc(N3CCOCC3)cc2)c1 | -14.1% | – | – |
| CCc1ccc(C(=O)Cn2ncc(Cl)c(Cl)c2=O)cc1 | -27.9% | 6.51 µM [falling, single point] | – |

| Compound | cell number change | AC50 [1] | AC50 [2] |
| --- | --- | --- | --- |
| CC(C)Cn1c(N)c(C(=O)COC(=O)Cc2cccs2)c(=O)n(C)c1=O | -35.9% | 18.4 µM [falling, single point] | – |
| CC(OC(=O)C1CCN(S(=O)(=O)c2ccccc2C(F)(F)F)CC1)C(=O)N(C)Cc1ccccc1 (centres undefined) | 14.8% | 11.6 µM [falling, partial curve] | – |
| O=C(O)CSCc1nc2scc(-c3ccccc3)c2c(=O)[nH]1 | -4.37% | – | – |
| O=C(Nc1ccc(N2CCOCC2)cc1N1CCOCC1)c1ncoc1-c1cccc(F)c1 | -11.5% | – | – |
| COc1cc(OC)cc(C(=O)Nc2nc(CC(=O)NC(C)c3ccccc3)cs2)c1 (centres undefined) | -16.8% | 6.51 µM [rising, single point] | – |
| Cc1cccc(C)c1NCC(=O)N1CCN(Cc2ccccc2)CC1 | 21.5% | 0.58 µM [rising, full curve, poor fit] | – |
| Cc1nc2nc(C)c(CCC(=O)Nc3ccc4c(c3)OCO4)c(C)n2n1 | -7.64% | 1.84 µM [rising, partial curve, poor fit] | – |
| Cc1cccc(OCC(=O)Nc2ccc3c(c2)OCO3)c1C | -16.3% | – | – |
| NC(=O)C1CCN(C(=O)CN(C2CCCCC2)S(=O)(=O)c2ccc(F)cc2)CC1 | -23.8% | – | 0.116 µM [falling, full curve, poor fit] |
| CCN(CC(=O)Nc1ccc(NC(C)=O)cc1)C(=O)c1sc2nc3n(c(=O)c2c1C)CCC3 | 5.44% | 2.31 µM [rising, partial curve] | – |
| COc1ccc(C)cc1S(=O)(=O)N1CCC(C(=O)NCCC2=CCCCC2)CC1 | 57.5% | – | 29.1 µM [rising, single point] |
| CCOC(=O)c1ccccc1NC(=O)COC(=O)CCC(=O)c1ccc(C)cc1 | 14.5% | – | – |
| O=C(N/N=C/c1ccc(O)cc1)c1cc(-c2ccccc2)nc2ccccc12 | 9.01% | – | – |
| Cc1noc(C)c1COc1ccc(C(=O)OCC(=O)N2c3ccccc3NC(=O)C2(C)C)cc1 | – | 0.13 µM [falling, full curve, poor fit] | – |
| CC(Sc1ccc(Cl)cc1)C(=O)NCC1CCCO1 (centres undefined) | 1.73% | – | – |
| CCC(C)(C)n1nnnc1C(c1ccc(C)cc1)N(Cc1ccco1)Cc1cccs1 (centres undefined) | 14.3% | 0.058 µM [falling, full curve, poor fit] | – |
| CCOC(=O)N1CCN(S(=O)(=O)c2cc(OCC(=O)NC3CCCCC3)c(C)cc2Cl)CC1 | – | – | 6.51 µM [rising, single point] |
| COc1ccc2nc(NC(=O)c3cccc(-c4cc5ccccc5oc4=O)c3)sc2c1 | -7.14% | 8.2 µM [rising, single point] | – |
| CCOC(=O)CCC(NC(=O)CC(=O)NC(CCC(=O)OCC)C(=O)OCC)C(=O)OCC (centres undefined) | -26.7% | 32.6 µM [falling, partial curve] | – |

Three of these compounds in another layout.
Compound	cell number change	AC50 [1]	AC50 [2]
O=C(N/N=C/c1ccc(O)cc1)c1cc(-c2ccccc2)nc2ccccc12	9.01%	–	–
Cc1noc(C)c1COc1ccc(C(=O)OCC(=O)N2c3ccccc3NC(=O)C2(C)C)cc1	–	0.13 µM [falling, full curve, poor fit]	–
CC(Sc1ccc(Cl)cc1)C(=O)NCC1CCCO1 (centres undefined)	1.73%	–	–
